These are yes or no findings as the source states them, for the method shown. Binding seen in cells or lysates may run through a third protein. Some entries that bind do so weakly or less than the wild type. Sequences can lack the tags named with a protein.
T1: HA-tagged human NUSAP1 (nucleolar and spindle-associated protein 1), wild type (human) (UniProt Q9BXS6)
T1 sequence: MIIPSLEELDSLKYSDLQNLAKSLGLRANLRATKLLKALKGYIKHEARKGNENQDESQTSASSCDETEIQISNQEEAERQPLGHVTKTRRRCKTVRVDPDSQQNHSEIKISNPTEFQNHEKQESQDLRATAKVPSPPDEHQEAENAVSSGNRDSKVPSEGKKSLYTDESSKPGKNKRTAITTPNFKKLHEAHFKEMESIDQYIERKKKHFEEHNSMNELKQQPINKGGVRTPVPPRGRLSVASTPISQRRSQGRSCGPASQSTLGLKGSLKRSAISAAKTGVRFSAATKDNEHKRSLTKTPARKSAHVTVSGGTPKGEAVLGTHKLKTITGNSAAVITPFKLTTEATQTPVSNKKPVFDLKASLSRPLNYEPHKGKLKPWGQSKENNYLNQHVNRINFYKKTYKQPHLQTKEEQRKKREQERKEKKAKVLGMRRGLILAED

T2: Flag-tagged human Aurora kinase A (AURKA) (human) (UniProt O14965)
T2 sequence: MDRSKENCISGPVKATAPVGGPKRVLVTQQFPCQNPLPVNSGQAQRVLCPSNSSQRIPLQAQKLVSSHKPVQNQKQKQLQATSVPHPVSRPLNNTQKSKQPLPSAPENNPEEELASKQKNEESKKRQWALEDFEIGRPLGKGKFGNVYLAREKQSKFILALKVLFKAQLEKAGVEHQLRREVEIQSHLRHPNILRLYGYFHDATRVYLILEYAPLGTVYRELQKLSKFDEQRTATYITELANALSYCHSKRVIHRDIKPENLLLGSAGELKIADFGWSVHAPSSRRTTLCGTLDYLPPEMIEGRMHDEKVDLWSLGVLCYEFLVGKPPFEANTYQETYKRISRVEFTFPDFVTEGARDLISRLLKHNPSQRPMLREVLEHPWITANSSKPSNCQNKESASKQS

T3: Flag-tagged human KIF2C (human) (UniProt Q99661)
T3 sequence: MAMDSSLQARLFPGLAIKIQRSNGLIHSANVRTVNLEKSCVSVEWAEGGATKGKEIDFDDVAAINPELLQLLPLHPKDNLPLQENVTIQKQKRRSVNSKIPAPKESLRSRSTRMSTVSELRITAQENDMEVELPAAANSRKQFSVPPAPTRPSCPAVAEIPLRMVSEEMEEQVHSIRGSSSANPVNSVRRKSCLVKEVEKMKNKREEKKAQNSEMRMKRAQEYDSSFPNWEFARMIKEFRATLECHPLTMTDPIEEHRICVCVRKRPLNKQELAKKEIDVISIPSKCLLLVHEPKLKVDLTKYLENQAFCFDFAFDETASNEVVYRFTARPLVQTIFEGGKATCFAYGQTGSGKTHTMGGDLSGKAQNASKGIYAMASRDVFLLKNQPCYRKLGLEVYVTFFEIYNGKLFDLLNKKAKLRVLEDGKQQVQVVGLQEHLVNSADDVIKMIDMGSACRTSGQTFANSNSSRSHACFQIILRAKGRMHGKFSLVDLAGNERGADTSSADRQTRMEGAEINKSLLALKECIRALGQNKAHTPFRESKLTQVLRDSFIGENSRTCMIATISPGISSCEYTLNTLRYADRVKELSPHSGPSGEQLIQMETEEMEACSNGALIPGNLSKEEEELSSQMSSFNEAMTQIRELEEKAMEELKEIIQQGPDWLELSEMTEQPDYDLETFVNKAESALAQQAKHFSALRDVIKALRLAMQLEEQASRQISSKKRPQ

T4: GFP-tagged human KIF2C (human) (UniProt Q99661)
T4 sequence: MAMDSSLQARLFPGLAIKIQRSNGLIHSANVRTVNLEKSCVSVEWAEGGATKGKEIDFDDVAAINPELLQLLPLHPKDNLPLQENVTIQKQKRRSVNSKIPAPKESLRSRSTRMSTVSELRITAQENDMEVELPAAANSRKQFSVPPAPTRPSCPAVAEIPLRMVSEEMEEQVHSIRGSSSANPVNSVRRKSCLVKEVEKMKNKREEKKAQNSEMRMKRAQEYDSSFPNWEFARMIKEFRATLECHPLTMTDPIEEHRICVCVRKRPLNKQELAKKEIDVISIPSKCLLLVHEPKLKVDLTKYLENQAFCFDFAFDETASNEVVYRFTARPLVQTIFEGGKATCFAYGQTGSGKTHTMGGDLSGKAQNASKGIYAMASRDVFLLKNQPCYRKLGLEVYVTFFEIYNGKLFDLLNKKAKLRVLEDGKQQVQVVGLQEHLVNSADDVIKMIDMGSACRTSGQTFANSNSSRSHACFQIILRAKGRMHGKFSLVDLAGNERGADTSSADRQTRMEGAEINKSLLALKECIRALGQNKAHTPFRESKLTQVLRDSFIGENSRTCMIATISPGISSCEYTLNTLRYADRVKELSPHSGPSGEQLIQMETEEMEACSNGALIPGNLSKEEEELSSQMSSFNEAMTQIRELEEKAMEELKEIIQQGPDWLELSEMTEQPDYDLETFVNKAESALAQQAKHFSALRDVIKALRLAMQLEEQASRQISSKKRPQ


How the values were obtained:
Assay in all cases: co-IP
[1] = molecular target: T1, HA-tagged human NUSAP1 (nucleolar and spindle-associated protein 1), wild type (human)
[2] = molecular target: T2, Flag-tagged human Aurora kinase A (AURKA) (human)
[3] = molecular target: T3, Flag-tagged human KIF2C (human)
[4] = molecular target: T4, GFP-tagged human KIF2C (human)

Row | binding [1] | binding [2] | binding [3] | binding [4] | Binder
1 | binds | – | – | – | GFP-tagged human KIF2C (protein, UniProt Q99661-1 1-725) MAMDSSLQARLFPGLAIKIQRSNGLIHSANVRTVNLEKSCVSVEWAEGGATKGKEIDFDDVAAINPELLQLLPLHPKDNLPLQENVTIQKQKRRSVNSKIPAPKESLRSRSTRMSTVSELRITAQENDMEVELPAAANSRKQFSVPPAPTRPSCPAVAEIPLRMVSEEMEEQVHSIRGSSSANPVNSVRRKSCLVKEVEKMKNKREEKKAQNSEMRMKRAQEYDSSFPNWEFARMIKEFRATLECHPLTMTDPIEEHRICVCVRKRPLNKQELAKKEIDVISIPSKCLLLVHEPKLKVDLTKYLENQAFCFDFAFDETASNEVVYRFTARPLVQTIFEGGKATCFAYGQTGSGKTHTMGGDLSGKAQNASKGIYAMASRDVFLLKNQPCYRKLGLEVYVTFFEIYNGKLFDLLNKKAKLRVLEDGKQQVQVVGLQEHLVNSADDVIKMIDMGSACRTSGQTFANSNSSRSHACFQIILRAKGRMHGKFSLVDLAGNERGADTSSADRQTRMEGAEINKSLLALKECIRALGQNKAHTPFRESKLTQVLRDSFIGENSRTCMIATISPGISSCEYTLNTLRYADRVKELSPHSGPSGEQLIQMETEEMEACSNGALIPGNLSKEEEELSSQMSSFNEAMTQIRELEEKAMEELKEIIQQGPDWLELSEMTEQPDYDLETFVNKAESALAQQAKHFSALRDVIKALRLAMQLEEQASRQISSKKRPQ
2 | – | binds | – | – | HA-tagged human NUSAP1 c.1209C>G (p.Tyr403*) truncated mutant (domain or fragment, UniProt Q9BXS6-1 1-402) MIIPSLEELDSLKYSDLQNLAKSLGLRANLRATKLLKALKGYIKHEARKGNENQDESQTSASSCDETEIQISNQEEAERQPLGHVTKTRRRCKTVRVDPDSQQNHSEIKISNPTEFQNHEKQESQDLRATAKVPSPPDEHQEAENAVSSGNRDSKVPSEGKKSLYTDESSKPGKNKRTAITTPNFKKLHEAHFKEMESIDQYIERKKKHFEEHNSMNELKQQPINKGGVRTPVPPRGRLSVASTPISQRRSQGRSCGPASQSTLGLKGSLKRSAISAAKTGVRFSAATKDNEHKRSLTKTPARKSAHVTVSGGTPKGEAVLGTHKLKTITGNSAAVITPFKLTTEATQTPVSNKKPVFDLKASLSRPLNYEPHKGKLKPWGQSKENNYLNQHVNRINFYKKT
3 | – | binds | – | – | HA-tagged human NUSAP1 c.1213C>T (p.Gln405*) truncated mutant (domain or fragment, UniProt Q9BXS6-1 1-404) MIIPSLEELDSLKYSDLQNLAKSLGLRANLRATKLLKALKGYIKHEARKGNENQDESQTSASSCDETEIQISNQEEAERQPLGHVTKTRRRCKTVRVDPDSQQNHSEIKISNPTEFQNHEKQESQDLRATAKVPSPPDEHQEAENAVSSGNRDSKVPSEGKKSLYTDESSKPGKNKRTAITTPNFKKLHEAHFKEMESIDQYIERKKKHFEEHNSMNELKQQPINKGGVRTPVPPRGRLSVASTPISQRRSQGRSCGPASQSTLGLKGSLKRSAISAAKTGVRFSAATKDNEHKRSLTKTPARKSAHVTVSGGTPKGEAVLGTHKLKTITGNSAAVITPFKLTTEATQTPVSNKKPVFDLKASLSRPLNYEPHKGKLKPWGQSKENNYLNQHVNRINFYKKTYK
4 | binds | – | – | – | Flag-tagged human Aurora kinase A (AURKA) (enzyme, UniProt O14965 1-403) MDRSKENCISGPVKATAPVGGPKRVLVTQQFPCQNPLPVNSGQAQRVLCPSNSSQRIPLQAQKLVSSHKPVQNQKQKQLQATSVPHPVSRPLNNTQKSKQPLPSAPENNPEEELASKQKNEESKKRQWALEDFEIGRPLGKGKFGNVYLAREKQSKFILALKVLFKAQLEKAGVEHQLRREVEIQSHLRHPNILRLYGYFHDATRVYLILEYAPLGTVYRELQKLSKFDEQRTATYITELANALSYCHSKRVIHRDIKPENLLLGSAGELKIADFGWSVHAPSSRRTTLCGTLDYLPPEMIEGRMHDEKVDLWSLGVLCYEFLVGKPPFEANTYQETYKRISRVEFTFPDFVTEGARDLISRLLKHNPSQRPMLREVLEHPWITANSSKPSNCQNKESASKQS
5 | – | binds | binds | binds | HA-tagged human NUSAP1 (nucleolar and spindle-associated protein 1), wild type (protein, UniProt Q9BXS6-1 1-441) MIIPSLEELDSLKYSDLQNLAKSLGLRANLRATKLLKALKGYIKHEARKGNENQDESQTSASSCDETEIQISNQEEAERQPLGHVTKTRRRCKTVRVDPDSQQNHSEIKISNPTEFQNHEKQESQDLRATAKVPSPPDEHQEAENAVSSGNRDSKVPSEGKKSLYTDESSKPGKNKRTAITTPNFKKLHEAHFKEMESIDQYIERKKKHFEEHNSMNELKQQPINKGGVRTPVPPRGRLSVASTPISQRRSQGRSCGPASQSTLGLKGSLKRSAISAAKTGVRFSAATKDNEHKRSLTKTPARKSAHVTVSGGTPKGEAVLGTHKLKTITGNSAAVITPFKLTTEATQTPVSNKKPVFDLKASLSRPLNYEPHKGKLKPWGQSKENNYLNQHVNRINFYKKTYKQPHLQTKEEQRKKREQERKEKKAKVLGMRRGLILAED

Source: article doi:10.1101/2025.05.16.654427
